About 13,000 (3.2%) of roughly 400,000 compounds were called active. The shares of active, inactive and inconclusive entries below differ from those in the screen. The call rests on the fitted dose curve; in most records, active means well fitted cell-killing curve with a large enough effect; inconclusive means small, poorly fitted or top-dose-only effect, or effect the other way; inactive means flat fitted curve, though single readings scatter. Where the call is inconclusive, the potency comes from a doubtful curve fit. Some compounds were tested as several samples or in several runs, with calls that do not always agree.
Experiment: qHTS assay for MDR1-selective chemotherapeutics: Primary screen using the drug-selected MDR subline cells KB-V1; further: nearly all actives have a fitted effect of over 60% in size
Conditions: KB-V1 MDR cells viability, CellTiter-Glo, 72 h; activity change, negative = cytotoxicity: at 46.1 µM (top of the series)
Method in brief: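 Luminescent ATP read-out (CellTiter-Glo, 10 min) measures survival of drug-selected KB-V1 MDR cells after 72 h, 37 degrees C compound exposure. Medium: phenol-red-free DMEM, 10% FBS. Values from fitted concentration-response curves.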
On the % scale 0 is the no-effect control and ±100 the full control effect; potency means the concentration at half of the fitted maximal effect.

Structure (SMILES) | Potency | activity change, negative = cytotoxicity
CN(c1ccccc1)S(=O)(=O)c1cccc(NC(=O)CCNC(=O)c2ccccc2)c1 | inconclusive: 29.1 µM [rising, single point] | –
CCOc1ccc(S(=O)(=O)N2CCN(c3ccc(Cl)c(Cl)c3)CC2)c2ccccc12 | inconclusive: 16.4 µM [cytotoxic, single point] | –
COc1ccc(-c2noc(CCC(=O)N3CCN(c4ccccc4Br)CC3)n2)cc1 | inactive | –
O=C1C=C(NC2=CC3OC(c4ccccc4)OCC3OC2=O)CCC1 (stereo not given) | inconclusive: 23.1 µM [cytotoxic, single point] | –
CCCCCCCCCCCCCCCC(C)C1=NCCN1 (stereo not given) | inactive | –
Cc1c(C(=O)N2CCC[C@H]2C(N)=O)oc2c(F)cccc12 | inconclusive: 29.1 µM [rising, single point] | –
O=C(Nc1ccncc1)Nc1ccc(F)cc1F | inconclusive: 29.1 µM [cytotoxic, single point] | –
O=C(CCSCc1ccccc1Cl)N1CCN(c2cccc(Cl)c2)CC1 | active: 20.6 µM | –
O=c1[nH]c(/C=C/c2ccc(OC(F)F)cc2)nc2c1cnn2-c1ccccc1 | inactive | –
O=C(OCC(=O)N1CCCCC1)c1cc(S(=O)(=O)N2CCOCC2)c(Cl)cc1Cl | inactive | –
C=CCn1c(-c2ccc3[nH]c(C)c(C)c3c2)n[nH]c1=S | inconclusive: 1.64 µM [cytotoxic, full curve, poor fit] | –
COCC1CCN(C(=O)c2cc(COc3ccc(OC)c4ccccc34)on2)C1 (stereo not given) | inconclusive: 13 µM [cytotoxic, partial curve, poor fit] | –
O=C(NC(c1ccc(Cl)cc1)c1cnccn1)C1CCN(Cc2ccc(Oc3ccccc3)cc2)CC1 (stereo not given) | inconclusive: 23.1 µM [cytotoxic, single point] | –
CCOc1ccccc1N(C(=O)c1snc(C(N)=O)c1N)C(C(=O)NC1CCCC1)c1cccs1 (stereo not given) | inconclusive: 16.4 µM [cytotoxic, single point] | –
O=C(CO/N=C/c1ccc(OC(F)F)cc1)NCc1cccs1 | inconclusive: 20.6 µM [cytotoxic, single point] | –
CCOc1ccccc1NC(=O)c1ccc2c(c1)C(=O)N(CC1CCCO1)C2=O (stereo not given) | inactive | –
CCCC1(C(=O)OCC)NC(c2ccc(O)cc2)C2C(=O)N(c3cccc(C(C)=O)c3)C(=O)C21 (stereo not given) | – | inconclusive: 3.88%
CCOC(=O)[C@]12Cc3c(cc(OC)c(OC)c3OC)[C@H]1N(CCC(=O)OC)C(=O)c1cc(OC)ccc12 | inconclusive: 11.6 µM [cytotoxic, partial curve, poor fit] | –
CCCCNC(=O)C[C@@H]1C[C@@]2(C(=O)OC)CC(C)(C)CC=C2N(Cc2ccccc2)C1=O | inconclusive: 8.2 µM [cytotoxic, partial curve] | –
C=CCn1c(CNc2ccccc2)nnc1SCC(=O)N/N=C/c1ccc(O)cc1O | inactive | –
CN(C)c1ccc(N=C/C=C2\N(C)c3ccccc3C2(C)C)cc1 | inconclusive: 18.4 µM [cytotoxic, single point] | –
O=C(O)c1nc(-c2ccccc2)n(-c2ccccc2)n1 | inconclusive: 23.1 µM [rising, partial curve, poor fit] | –
Cc1ccccc1NN=Nc1nc2c([nH]1)c(=O)n(C)c(=O)n2C | inconclusive: 29.1 µM [rising, single point] | –
O=C(Nc1ccccc1)C1=C[C@H](c2ccc(C(F)(F)F)cc2)C[C@H](OCc2ccc(CO)cc2)O1 | inactive | –

Gathered by group, the entries above with an aryl methoxy group
Structure (SMILES) | Potency | activity change, negative = cytotoxicity
COc1ccc(-c2noc(CCC(=O)N3CCN(c4ccccc4Br)CC3)n2)cc1 | inactive | –
COCC1CCN(C(=O)c2cc(COc3ccc(OC)c4ccccc34)on2)C1 (stereo not given) | inconclusive: 13 µM [cytotoxic, partial curve, poor fit] | –
CCOC(=O)[C@]12Cc3c(cc(OC)c(OC)c3OC)[C@H]1N(CCC(=O)OC)C(=O)c1cc(OC)ccc12 | inconclusive: 11.6 µM [cytotoxic, partial curve, poor fit] | –

Next part.

Structure (SMILES) | Potency | activity change, negative = cytotoxicity
S=C(Nc1ccc(Cl)c(Cl)c1)NC1CCCCC1 | active: 16.4 µM | –
CCCCN1CC(c2nc3ccccc3n2CCCCOc2ccc(C)cc2C)CC1=O (stereo not given) | inconclusive: 29.1 µM [cytotoxic, single point] | –
Cc1ccc(-c2nn(-c3ccccc3)cc2C(=O)N2CCOCC2)cc1 | inconclusive: 20.6 µM [cytotoxic, single point] | –
COc1ccc(CNC(=O)N2CCN(c3cccc(Cl)c3)CC2)cc1OC | inconclusive: 16.4 µM [cytotoxic, partial curve] | –
O=C(OCCN1CCCC1)C1(c2ccccc2)CCCC1 | inconclusive: 11.6 µM [cytotoxic, partial curve, poor fit] | –
CC(=O)C(Cc1ccccc1)NC(=O)CN1c2cccc3cccc(c23)S1(=O)=O (stereo not given) | inconclusive: 20.6 µM [cytotoxic, partial curve, poor fit] | –
CCC/C(C#Cc1ccsc1)=C1/c2ccccc2C(=O)N1c1ccccc1 | inconclusive: 20.6 µM [cytotoxic, single point] | –
Cc1ccc(S(=O)(=O)N2CCCCC2)cc1C(=O)NCCc1ccccc1 | inconclusive: 10.3 µM [cytotoxic, partial curve] | –
ClCC1=Nc2ccccc2Cc2ccccc21 | inactive | –
CC(=O)c1cccc(NC(=O)C(C)OC(=O)/C=C/c2cccs2)c1 (stereo not given) | inconclusive: 29.1 µM [cytotoxic, single point] | –
Cc1c(Cl)c(-c2n[nH]c(=S)n2CC(C)C)nn1C | inconclusive: 14.6 µM [cytotoxic, partial curve] | –
COc1cccc(NC(=O)Nc2nnc(Cc3ccccc3F)s2)c1 | inconclusive: 3.26 µM [cytotoxic, partial curve, poor fit] | –
S=c1[nH]nc(COc2ccccc2)n1/N=C/c1ccc(Cl)c(Cl)c1 | inactive | –
CC(=O)c1ccc(Nc2nc(-c3sc(C)nc3C)cs2)cc1 | active: 11.6 µM | –
Cc1nc(-c2cccc(NC(=O)Cc3ccccc3)c2)cs1 | active: 16.4 µM | –
Cc1ccsc1/C=N\NC(=O)c1n[nH]c2c1CCC2 | active: 4.61 µM | –
CCN(CC)C(=O)CN1C(=O)C2(OCC(C)(C)CO2)c2ccccc21 | active: 16.4 µM | –
O=Cc1nc(-c2ccc(Cl)cc2)n2ccccc12 | inconclusive: 23.1 µM [cytotoxic, single point] | –
COc1ccc(S(=O)(=O)n2nc(-n3c(C)ccc3C)c3c(F)cccc32)cc1OC | inconclusive: 16.4 µM [cytotoxic, partial curve, poor fit] | –
CCCCn1c(=O)c(CCC(=O)OCC(=O)Nc2ccc(F)c(Cl)c2)nc2ccccc21 | inactive | –
OCCNc1nc(N2CCN(Cc3ccccc3)CC2)nc2ccccc12 | active: 20.6 µM | –
CC(=O)OCc1cnc(C)c2oc(=O)c(C(=O)Nc3cccc(F)c3)cc12 | inactive | –
CCCCNC(=S)NC(=O)c1ccc([N+](=O)[O-])cc1 | inactive | –
CCN(CC)CC#CCC(O)(c1ccccc1)c1ccccc1 | inconclusive: 29.1 µM [cytotoxic, single point] | –

Structure (SMILES) | Potency | activity change, negative = cytotoxicity
Clc1ccc(CNCCCSc2ncccn2)cc1Cl | inconclusive: 0.411 µM [rising, full curve, poor fit] | –
COc1cccc(CN2C(=O)CCC2(C)C(=O)NC2CCCCC2)c1 (stereo not given) | inactive | –
O=C(O)C1C(c2ccccc2)c2ccccc2C(O)C1CO (stereo not given) | inconclusive: 29.1 µM [cytotoxic, single point] | –
Cc1ccc(Cl)c(OCC(=O)NC2CCN(Cc3ccccc3)CC2)c1 | inconclusive: 10.3 µM [cytotoxic, partial curve] | –
CCN(C(=O)CN(C)Cc1c(F)cccc1Cl)c1c(N)n(Cc2ccccc2)c(=O)[nH]c1=O | inconclusive: 7.31 µM [rising, partial curve] | –
NNC(=O)c1cc(-c2ccc(O)cc2)nc2ccc(Br)cc12 | inactive | –
Clc1cccc(/C=N/N2CCN(Cc3ccccc3)CC2)c1 | inactive | –
COc1cc2[nH]c(=O)n(Cc3ccc(C(=O)NCc4ccccc4)cc3)c(=O)c2cc1OC | inconclusive: 0.0052 µM [rising, full curve, poor fit] | –
CC[C@@]12C(=O)N(c3ccc(C)cc3)C(=O)N1[C@H](c1cccc(C)c1)[C@@H]1C(=O)N(Cc3ccccc3)C(=O)[C@@H]12 | – | inconclusive: 11.7%
CCCC(=O)N1CCN(c2nc3c(OC)ccc(Cl)c3s2)CC1 | inactive | –
C/C(=N/NC(=S)Nc1cccc(C)c1)c1cccc([N+](=O)[O-])c1 | inconclusive: 29.1 µM [cytotoxic, single point] | –
O=C(NCC(c1ccco1)N1CCc2ccccc2C1)C(=O)Nc1ccc(F)cc1F (stereo not given) | inconclusive: 9.2 µM [cytotoxic, partial curve] | –
O=C(O)c1ccccc1NC(c1ccccc1)c1ccc2cccnc2c1O (stereo not given) | inconclusive: 7.31 µM [cytotoxic, partial curve] | –
CC(=O)C(Sc1ccc2nnc(-c3ccc(C)cc3)n2n1)C(C)=O | inconclusive: 29.1 µM [cytotoxic, partial curve, poor fit] | –
CCCOc1cccc(C(=O)N/N=C/c2ccoc2)c1 | inactive | –
COc1ccccc1N1CCN(C(=O)CCN2C(=O)c3cccc4cccc(c34)C2=O)CC1 | inconclusive: 6.51 µM [cytotoxic, partial curve, poor fit] | –
C=CCN1c2ccccc2C(=O)C(C)S1(=O)=O (stereo not given) | inconclusive: 3.26 µM [rising, partial curve, poor fit] | –
Cc1ccc(C)c(NC(=O)Cn2cc(C(=O)C3CCCCC3)c3ccccc32)c1 | inconclusive: 20.6 µM [cytotoxic, single point] | –
C=C(C)CSc1nnc([C@H](CCSC)NC(=O)OC(C)(C)C)o1 | inconclusive: 23.1 µM [cytotoxic, partial curve, poor fit] | –
COc1ccccc1Nc1nc(-c2sc(NC(=O)c3ccco3)nc2C)cs1 | inactive | –
COc1ccccc1NC(=O)CCCCCN1C(=O)c2cccc([N+](=O)[O-])c2C1=O | inactive | –
COc1cc(/C=C(\C#N)c2nc3ccc(C)cc3[nH]2)c([N+](=O)[O-])cc1OC | inactive | –
